Values quoted from earlier work as cited in EP2566462B1, “IMMEDIATE RELEASE FORMULATIONS AND DOSAGE FORMS OF GAMMA-HYDROXYBUTYRATE” (Jazz Pharmaceuticals Inc., priority 2010, dated 2011).
At least one structure is not confirmed: it was looked up by name or label, or the drawing left a doubt.

Assays:
[1] = test system: patients suffering from disorders of disturbed sleep, including narcolepsy; settings: patients with disturbed sleep
[2] = test system: non-narcoleptic patients with fibromyalgia

O=C(O)CCCO [GHB, gamma-hydroxybutyrate]
Stage 3-4 (slow wave) sleep [1]: increase
nocturnal awakenings [1]: decrease
total nocturnal sleep time [1]: increase
estimates of overall wellness ([2]; before and after treatment): significant improvement
subjective assessments of levels of pain and fatigue ([2]; over all 4 weeks of treatment as compared to baseline): significant improvements
